This assay has as its target PETase from Ideonella sakaiensis (IsPETase) (Ideonella sakaiensis). In words: SEC; Superdex 75 Increase 10/300 GL, isocratic, 50 mM sodium phosphate (pH 7), 30 mM NaCl, 0.01% (w/v) sodium azide, 1 mL/min; 100 µL of purified IsPETase; protein standards for molecular weight; both purified.

Sequences of proteins named here, by UniProt entry; tags and fusion partners are left off. Residues count along the entry.
UniProt A0A0K8P6T7, residues 28-290: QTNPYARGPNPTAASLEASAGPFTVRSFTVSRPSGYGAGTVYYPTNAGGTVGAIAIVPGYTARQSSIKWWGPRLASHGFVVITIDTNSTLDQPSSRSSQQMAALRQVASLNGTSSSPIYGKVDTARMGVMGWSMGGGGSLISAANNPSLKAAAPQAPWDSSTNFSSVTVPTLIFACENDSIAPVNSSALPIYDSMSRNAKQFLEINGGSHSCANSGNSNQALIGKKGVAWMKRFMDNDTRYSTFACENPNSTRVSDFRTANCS

No constants are given. Whether binding was seen depends on the method and setting.

As for “PETase from Ideonella sakaiensis (IsPETase) (from UniProt A0A0K8P6T7 28-290) (enzyme)”, the binding result is recorded as “no binding”.

The record behind these values is paper PMC11587651, “Increased cytoplasmic expression of PETase enzymes in E. coli” (Microbial Cell Factories, 2024).
